Values are the deposited “Percent Effect”, in %. The record does not define 0% and 100%; most values in the screen are far below 50% and negative numbers occur (in some assays of this library far below -100). This is an unselected part of the compounds tested. Two or more numbers in one place are separate tests of the same structure; such repeats can differ widely.

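Growth of Mycobacterium tuberculosis over 4 days (cholesterol / DPPC medium with tyloxapol); the read-out is not stated. Concentration: 50 µM. Direction is inferred from retests: higher values go with more growth inhibition. Of about 69,000 compounds tested this way, about 370 (0.54%) reached 50% or more in at least one test.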

With Cc1nc(CN(C)C2CCN(Cc3nc4c(F)cccc4[nH]3)C2)no1 (stereo not shown) the screen gave -4.494%. For Cc1nc(CN2CCC(N(C)Cc3noc(C(C)C)n3)C2)oc1C (stereo not shown) the result was -34.35%. With Cc1cnn(CC2CCCCN2CCn2cncn2)c1 (stereo not shown) the screen gave -32.64%. NS(=O)(=O)N1CCC(C(=O)Nc2cccc(OC(F)F)c2)CC1 read -8.206%.

CN1CC(Oc2ccc(Cl)cc2)=NC(SCC(=O)Nc2ccccc2)=N1 gave 3.077%. CC(=O)N(Cc1ncc(C)o1)C1CCN(CCc2cccs2)C1 (stereo not shown) gave -5.817%. COC(=O)CCC(=O)N1CCC2(CN(Cc3ccc(Cl)cc3)C2)C1 read -1.79%. Cc1cc(C(F)(F)F)nc(CCNC(C)Cn2cncn2)n1 (stereo not shown) gave -5.922%.

With COCC(=O)N(C)Cc1ccc(Cl)c(Cl)c1 the screen gave 6.161%. CN(Cc1ccccc1)C1(C(=O)O)Cc2ccccc2C1 gave 5.746%. Result for Fc1ccc(-c2cc(NCCC3CCOC3)n3nccc3n2)cc1 (stereo not shown) was -5%. Result for Cc1cc(C(F)(F)F)nc(N2CCN(Cc3nccn3C)CC2)n1 was -50.96%.

With Cc1cc(Br)c(O)c(C(=O)N2CCC(CN3CCCCCC3)CC2)c1 the screen gave 1.881%. O=C(c1ccnn1-c1ccc2ccccn12)N1CCOCC1 gave -3.404%. With CC(C)C(C)N(C)Cc1nnc(-c2ccc(Br)s2)o1 (stereo not shown) the screen gave 60.01% and 63.7%. For CSCCC(=O)N1CC[C@@H](N2CCN(c3ccccc3F)CC2)[C@H](O)C1 the result was -9.648%.

With CC1c2ncc(Cn3cncn3)n2CCN1C(=O)c1ccsc1 (stereo not shown) the screen gave -5.437%. CCN1CCN(C2CCN(Cc3nc(C)c(C)o3)CC2)C1=O gave -33.33%. Cc1ccc2c(c1)N(C(=O)c1c[nH]c(C)cc1=O)CC(C)O2 (stereo not shown) gave -13.19% and -18.55%. Result for O=C(c1cn(-c2ccccc2)nn1)N1CCOCC(O)C1 (stereo not shown) was 51.2%.

CC(O)CNC(=O)CCc1nc2ncccc2[nH]1 (stereo not shown) gave -21.57%. Cc1cccc(N2CCC3(CCCN(C(=O)c4cccnc4)C3)C2)n1.O=C(O)C(F)(F)F.O=C(O)C(F)(F)F (stereo not shown) read -33.1%. With COCc1nc2cc(NCc3ccncc3)ccc2o1 the screen gave -3.5% and 11.79%. OCCCN1CCc2[nH]nc(C(c3ccccc3)c3ccccc3)c2C1 read -19.92%.

Result for c1ccc(-c2nc(CN3CCc4c(ncn4C4CC4)C3)cs2)cc1 was -0.7086%. Result for Cc1cc(SC(C)(C)C)ccc1NC(C)C(=O)NC(N)=O (stereo not shown) was 6.774% and -2.782%. COc1ccc(C(=O)NCCCNc2ncccn2)cc1F gave 4.414%. O=C(NCC(=O)N1CCCC1Cc1cccc(F)c1)C1CCCC1 (stereo not shown) gave -15.83%.

Result for N#CCCn1cnc2c(F)cc(Br)cc2c1=O was -2.653% and -16.43%. Result for Cc1ccc2oc(CN3CCC(C(=O)O)(n4ccnc4)CC3)c(C)c2c1 was -6.571%. Result for CN(Cc1ccsc1)C(=O)c1ccc(C2CCCO2)s1 (stereo not shown) was 42.18%. O=C(NCc1ccc(N2CCCC2)nc1)N1CCc2sccc2C1 read -22.49%.

Result for C1CN(c2nc(C3CC3)no2)CCN(C2CCOCC2)C1 was -2.906%. CN(CCn1cccn1)S(=O)(=O)N1CCCC1c1ccco1 (stereo not shown) gave -5.982%. Result for CCC(OC)C(=O)N1CCc2nc(NC)nc(C(=O)N3CCCC3)c2C1 (stereo not shown) was -27.35%. Cc1nn(C)c2nc(N(C)CCN(C)C)sc12 read 27.79%.

Result for [H][C@@]12CN(C(=O)CC(F)(F)F)C[C@@]1([H])N(CC(C)C)C(=O)CO2 was 14.57%. Cc1ncsc1CCC(=O)N1CCN(CCn2cncn2)CC1 read -16.31%. Result for CCNc1cc2c(nn1)CCN(C(=O)c1cccnc1N(C)C)C2 was 10.79%. O=C(NCC1CCCO1)c1nc2c(s1)CCCN2c1ncccn1 (stereo not shown) gave -28.93%.

CCc1nc(CN(C)C2CCN(CCNS(=O)(=O)CC)C2)no1 (stereo not shown) gave -51.02%. Result for CCC(O)CN1CCN(C(=O)c2sccc2C(C)C)CC1 (stereo not shown) was -6.482%. For Cc1[nH]c2nc(CNc3ccccc3Cl)nn2c(=O)c1C the result was 2.609%. With CCN(CC)C(=O)c1ccc(CNc2ncc(C#N)cc2Cl)cc1 the screen gave -38.92%.

With CCN(C)Cc1n[nH]c(=O)n1-c1cc(F)ccc1C the screen gave 7.316%. For NS(=O)(=O)c1ccc(NCc2ccco2)c2ncccc12 the result was 21.2%. CNC(=O)N1CCc2nc(C(=O)Nc3cccnc3)sc2CC1 read -9.591%. CC(C)N1CCC2(CC1)CC(NCc1ccccn1)c1ccccc1O2.O=C(O)C(F)(F)F.O=C(O)C(F)(F)F.O=C(O)C(F)(F)F (stereo not shown) gave -26.45%.

With Cl.Cl.OC(CN1CCN(Cc2ccc(F)c(F)c2)CC1)C1CC1 (stereo not shown) the screen gave -0.2114%. With COCCCN(C)c1cc(C(F)(F)F)nc(-c2cccnc2)n1 the screen gave 2.994% and -1.407%. With COCCS(=O)(=O)NC(C)c1ccccc1Br (stereo not shown) the screen gave 9.326%. For CCC(=O)N1CCC2(CC1)C(=O)N(Cc1cccnc1)CCN2C.O=C(O)C(F)(F)F.O=C(O)C(F)(F)F the result was 2.031%.

O=C(CCn1cccn1)N1CCSCC1 gave -1.149%. Result for c1cc(-c2nc(CN3CCn4c(nnc4C4CC4)C3)cs2)cs1 was 21.07%. Result for CC(C)NC(=O)N1CCN(C(=O)C2CCOCC2)CC2(CNC(=O)C2)C1 (stereo not shown) was -4.958%. For COc1ccc(C(C)NS(=O)(=O)c2ccc3c(c2)CCC(=O)N3)cc1F (stereo not shown) the result was -22.28%.

CCNC(=O)N(C)C(c1cccnc1)C(C)C (stereo not shown) read 4.898%. COc1cccc(C(=O)Nc2ccc(OCCC(N)=O)cc2)c1OC read 7.958%. With Cn1c(C2CC2)nc2cc(NC(=O)C3(O)CCCC3)ccc21 the screen gave -10.62%. With CSCc1noc(CNC(=O)C2CCN(C3CCCCC3)CC2)n1 the screen gave 12.34%.

Measurements from “University of Dundee, Small-Polar-MMV Screening Library” (2021), ChEMBL document CHEMBL3988442.